{"source": "PubChem BioAssay AID652272 (Drosophila RNAi Screening Center, 2013)", "test": "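Finding fly genes that regulate Hedgehog signal transduction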 (primary screen)", "cell system": "Drosophila clone 8 (Cl8) cells", "knock-down reagent": "long dsRNA against Drosophila genes", "measurement": "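Firefly light from a Hedgehog-responsive ptc promoter reporter and Renilla reference light, both read on a plate reader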", "direction": "firefly Hh reporter signal: higher = more ptc reporter light; Renilla reference signal: higher = more Renilla control light", "call rule": "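Called a hit if the two-replicate mean z-score lies below -2 or above +3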", "calls": "active = hit: reporter lowered or raised; inactive = not a hit", "note": "In all, the deposit lists about 21,000 reagents; this is an unselected part of those with a known target gene and a result. Of all reagents, 503 (2.4%) are marked active. 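Raw plate light values, not normalised; calls rest on replicate z-scores that were not deposited; hits include reporter decreases as well as increases.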 A plus sign joins genes that one reagent is predicted to hit. Not stated in the record: the amount of reagent, the time to read-out."}
{"target": "GLS", "dsRNA": "DRSC07261", "firefly Hh reporter signal, replicate 1": 93483, "firefly Hh reporter signal, replicate 2": 91315, "Renilla reference signal, replicate 1": 3885, "Renilla reference signal, replicate 2": 3479, "Call": "inactive"}
{"target": "CG5080", "dsRNA": "DRSC00677", "firefly Hh reporter signal, replicate 1": 75352, "firefly Hh reporter signal, replicate 2": 47940, "Renilla reference signal, replicate 1": 2813, "Renilla reference signal, replicate 2": 2498, "Call": "inactive"}
{"target": "CG8003", "dsRNA": "DRSC10946", "firefly Hh reporter signal, replicate 1": 74132, "firefly Hh reporter signal, replicate 2": 92103, "Renilla reference signal, replicate 1": 3369, "Renilla reference signal, replicate 2": 3397, "Call": "inactive"}
{"target": "Gasz", "dsRNA": "DRSC06829", "firefly Hh reporter signal, replicate 1": 64082, "firefly Hh reporter signal, replicate 2": 63383, "Renilla reference signal, replicate 1": 3104, "Renilla reference signal, replicate 2": 2777, "Call": "inactive"}
{"target": "sowi", "dsRNA": "DRSC12558", "firefly Hh reporter signal, replicate 1": 70320, "firefly Hh reporter signal, replicate 2": 1.13e5, "Renilla reference signal, replicate 1": 2469, "Renilla reference signal, replicate 2": 3124, "Call": "inactive"}
{"target": "CG9582", "dsRNA": "DRSC03267", "firefly Hh reporter signal, replicate 1": 66547, "firefly Hh reporter signal, replicate 2": 48293, "Renilla reference signal, replicate 1": 1504, "Renilla reference signal, replicate 2": 4183, "Call": "inactive"}
{"target": "CG30031 + deltaTry + gammaTry", "dsRNA": "DRSC07622", "firefly Hh reporter signal, replicate 1": 1.16e5, "firefly Hh reporter signal, replicate 2": 96121, "Renilla reference signal, replicate 1": 2556, "Renilla reference signal, replicate 2": 5574, "Call": "inactive"}
{"target": "okr", "dsRNA": "DRSC00834", "firefly Hh reporter signal, replicate 1": 90259, "firefly Hh reporter signal, replicate 2": 1.12e5, "Renilla reference signal, replicate 1": 3856, "Renilla reference signal, replicate 2": 5205, "Call": "inactive"}
{"target": "CG33140", "dsRNA": "DRSC06030", "firefly Hh reporter signal, replicate 1": 91521, "firefly Hh reporter signal, replicate 2": 68202, "Renilla reference signal, replicate 1": 3384, "Renilla reference signal, replicate 2": 2730, "Call": "inactive"}
{"target": "CG17290", "dsRNA": "DRSC06662", "firefly Hh reporter signal, replicate 1": 91609, "firefly Hh reporter signal, replicate 2": 44941, "Renilla reference signal, replicate 1": 2553, "Renilla reference signal, replicate 2": 3713, "Call": "inactive"}

Next part; the last 3 above are carried over.
{"target": "okr", "dsRNA": "DRSC00834", "firefly Hh reporter signal, replicate 1": 90259, "firefly Hh reporter signal, replicate 2": 1.12e5, "Renilla reference signal, replicate 1": 3856, "Renilla reference signal, replicate 2": 5205, "Call": "inactive"}
{"target": "CG33140", "dsRNA": "DRSC06030", "firefly Hh reporter signal, replicate 1": 91521, "firefly Hh reporter signal, replicate 2": 68202, "Renilla reference signal, replicate 1": 3384, "Renilla reference signal, replicate 2": 2730, "Call": "inactive"}
{"target": "CG17290", "dsRNA": "DRSC06662", "firefly Hh reporter signal, replicate 1": 91609, "firefly Hh reporter signal, replicate 2": 44941, "Renilla reference signal, replicate 1": 2553, "Renilla reference signal, replicate 2": 3713, "Call": "inactive"}
{"target": "BaraC", "dsRNA": "DRSC03885", "firefly Hh reporter signal, replicate 1": 93645, "firefly Hh reporter signal, replicate 2": 2.16e5, "Renilla reference signal, replicate 1": 1459, "Renilla reference signal, replicate 2": 10102, "Call": "inactive"}
{"target": "yem", "dsRNA": "DRSC14865", "firefly Hh reporter signal, replicate 1": 1.22e5, "firefly Hh reporter signal, replicate 2": 1.12e5, "Renilla reference signal, replicate 1": 4272, "Renilla reference signal, replicate 2": 2205, "Call": "inactive"}
{"target": "yem", "dsRNA": "DRSC17097", "firefly Hh reporter signal, replicate 1": 70293, "firefly Hh reporter signal, replicate 2": 87275, "Renilla reference signal, replicate 1": 2848, "Renilla reference signal, replicate 2": 1987, "Call": "inactive"}
{"target": "CG11951", "dsRNA": "DRSC14442", "firefly Hh reporter signal, replicate 1": 85691, "firefly Hh reporter signal, replicate 2": 90768, "Renilla reference signal, replicate 1": 2409, "Renilla reference signal, replicate 2": 2685, "Call": "inactive"}
{"target": "Samuel", "dsRNA": "DRSC02156", "firefly Hh reporter signal, replicate 1": 77834, "firefly Hh reporter signal, replicate 2": 33651, "Renilla reference signal, replicate 1": 2171, "Renilla reference signal, replicate 2": 2663, "Call": "inactive"}
{"target": "Samuel", "dsRNA": "DRSC02401", "firefly Hh reporter signal, replicate 1": 49440, "firefly Hh reporter signal, replicate 2": 20656, "Renilla reference signal, replicate 1": 1444, "Renilla reference signal, replicate 2": 1920, "Call": "inactive"}
{"target": "Samuel", "dsRNA": "DRSC02402", "firefly Hh reporter signal, replicate 1": 1.74e5, "firefly Hh reporter signal, replicate 2": 85952, "Renilla reference signal, replicate 1": 5079, "Renilla reference signal, replicate 2": 8413, "Call": "inactive"}
{"target": "Claspin", "dsRNA": "DRSC08308", "firefly Hh reporter signal, replicate 1": 6.98e5, "firefly Hh reporter signal, replicate 2": 73075, "Renilla reference signal, replicate 1": 3452, "Renilla reference signal, replicate 2": 3452, "Call": "inactive"}
{"target": "Porin2", "dsRNA": "DRSC02584", "firefly Hh reporter signal, replicate 1": 1.32e5, "firefly Hh reporter signal, replicate 2": 82736, "Renilla reference signal, replicate 1": 2730, "Renilla reference signal, replicate 2": 7168, "Call": "inactive"}
{"target": "CG1640", "dsRNA": "DRSC19750", "firefly Hh reporter signal, replicate 1": 1.06e5, "firefly Hh reporter signal, replicate 2": 88581, "Renilla reference signal, replicate 1": 3270, "Renilla reference signal, replicate 2": 2016, "Call": "inactive"}
{"target": "CG17601", "dsRNA": "DRSC20639", "firefly Hh reporter signal, replicate 1": 66150, "firefly Hh reporter signal, replicate 2": 2.05e5, "Renilla reference signal, replicate 1": 2232, "Renilla reference signal, replicate 2": 8678, "Call": "inactive"}
